Measurements taken from patent US20040001822A1, “Y1-isolated molecules comprising epitopes containing sulfated moieties, antibodies to such epitopes, and uses thereof” (priority 2000, published 2004).
These are yes or no findings as the source states them, for the method shown. Binding calls can cover weak binding; strength is not graded here.

Tests used:
[1] = target: fibrinogen γ prime (human); assay: immunoblot of human plasma, purification and peptide mapping
[2] = target: fibrinogen γ prime (human); assay: Western blot of human plasma proteins
[3] = target: fibrinogen γ prime (human); assay: summary of the experiments

Measured: binding

B1: Y1 scFv (scFv)
scFv: EVQLVESGGGVVRPGGSLRLSCAASGFTFDDYGMSWVRQAPGKGLEWVSGINWNGGSTGYADSVKGRFTISRDNAKNSLYLQMNSLRAEDTAVYYCARMRAPVIWGQGTLVTVSRGGGGSGGGGSGGGGSSELTQDPAVSVALGQTVRITCQGDSLRSYYASWYQQKPGQAPVLVIYGKNNRPSGIPDRFSGSSSGNTASLTITGAQAEDEADYYCNSRDSSGNHVVFGGGTKLTVLGAAAEQKLISEEDLNGAA
binds: all assays above
